Results taken from PMC6282106, “Commercial drugs containing flavonoids are active in mice with malaria and in vitro against chloroquine-resistant Plasmodium falciparum” (Memórias do Instituto Oswaldo Cruz, 2018).
Where two headings read alike, the source gives them in different places.

System: Plasmodium falciparum chloroquine-resistant clone (W2)
Format: cell-based

Compound | Selectivity index (SI) MDL50 / IC50 | Selectivity index (SI) MDL50 / IC50 (listed as zinc oxide)
COc1ccc([C@@H]2CC(=O)c3c(O)cc(O[C@@H]4O[C@H](CO[C@@H]5O[C@@H](C)[C@H](O)[C@@H](O)[C@H]5O)[C@@H](O)[C@H](O)[C@H]4O)cc3O2)cc1O [Hesperidin] | Inactive | 
CC(=O)N[C@@H](CS)C(=O)O [N-Acetylcysteine] | Inactive | 
[O]=[Zn] [Zinc oxide] | ≥ 370 | 370
